Laboratory results as given in patent US20220354834A1, “METHODS AND MATERIALS FOR TREATING NEUROTOXICITY” (Cavion, Inc., priority 2019, published 2022).
At least one compound was matched to its structure with a doubt left.

How the values were obtained:
[1] = tested on: hind paw mechanical allodynia (BTZ-induced CIPN); experiment: CIPN-reversal study: Dynamic Aesthesiometer Test, mechanical threshold; type: in vivo, Wistar rat; details: weeks 5 and 8, not statistically significant
Procedure: (§1) Wistar female rats (n=52) (Envigo, Correzzano, Italy) at 10-11 weeks of age were utilized. The study was divided into 2 phases of 4 weeks each. […] Body weight was measured periodically during phase 1 from baseline (day 1) to day 28. At baseline and conclusion of phase 1 (day 28), nerve conduction velocity (NCV) was performed on caudal and sciatic nerves and Dynamic Aesthesiometer Test (DAT) measured mechanical threshold (MT) of the hind paw. […] Body weight was measured periodically from baseline (day 28) to day 56 (termination). NCV and MT were measured in all 4 groups at baseline and on day 35 and 56. […] At termination, sciatic nerves were obtained for β-tubulin polymerization and skin samples were procured for intraepidermal nerve fiber (IENF) density and histopathology.
MT was assessed with the DAT device (Model 37450, Ugo Basile Biological Instruments, Comerio, Italy). After acclimation, a servo-controlled pointed metallic filament (0.5 mm diameter) was placed on plantar surface of the hind paw and exerted a progressive punctate pressure up to 50 grams within 20 seconds. The pressure elicited a voluntary hind paw withdrawal response that was recorded and represented MT index. MT was collected alternatively on each side every 2 minutes on 3 occasions to yield a mean value. Mean MT values represented maximum pressure (grams) tolerated by each rat. […]

[2] = tested on: RPMI-8226 human myeloma xenografts; experiment: In vivo BTZ and combination (BTZ and CX-8998) anti-tumor (interference) study, tumor volume; design: species or system athymic nude mouse
From the text: Care and husbandry of mice complied with USDA (U.S. Department of Agriculture) Animal Welfare Act and START IACUC (Institutional Animal Care and Use Committee) regulations. The protocol was reviewed and approved by START IACUC. Mice were individually housed in Sealsafe® Plus ventilated cages (Techniplast, West Chester, Pa., USA) and fed with Teklad 2919 (Envigo, Somerset, N.J., USA), irradiated, 19% protein, 9% fat and 4% fiber mouse chow. Mice were maintained under controlled environmental conditions (22+/−2° C. temperature, 55+/−10% relative humidity and 12-hour light/dark cycle (7 a.m.-7 p.m.).
South Texas Accelerated Research Therapeutics (START) (San Antonio, Tex., USA) conducted this study. […] The 30 mg/kg dose was tolerated in preclinical safety studies and anticipated to result in exposures in excess of the therapeutic range for 28 days. Body weight, TV and animal observations were collected twice per week to day 18 (termination) for vehicle control mice and twice per week to day 28 (termination) for each of the other 3 groups. Mean±SD body weight and TV were analyzed with Kruskal-Wallis and Dunn multiple comparison test at day 18 and with Mann Whitney test at day 28 with statistical significance at p<0.05.

[3] = tested on: intraepidermal nerve fibers (BTZ-induced CIPN); experiment: IENF density and histopathology of plantar glabrous skin; type: in vivo, Wistar rat; details: for BTZ induced reduction of IENF density: week 8
Procedure: as §1
(§2) At day 56, animals were euthanized by CO2 inhalation and tissue samples were procured from 4 rats per group. Right sciatic nerve was frozen in liquid nitrogen for β-tubulin polymerization assay and plantar glabrous skin samples were collected for IENF density.
Plantar glabrous skin samples (5 mm) from hind paws were fixed in 2% PLP (paraformaldehyde-lysine-sodium periodate) for 24 hours at 4° C. and cryoprotected overnight. Samples were serially cut with a cryostat to yield 20 μm sections. Three sections from each footpad were randomly selected and immunostained with rabbit polyclonal anti-protein gene product 9.5 (PGP 9.5; GeneTex, Irvine, Calif., USA) in combination with biotinylated anti-rabbit IgG and Vector SG substrate kit peroxidase (Vector Laboratories, Burlingame, Calif.) using a free-floating protocol. A blinded observer counted total number of immune-positive IENF in each section under light microscopy at high magnification with a microscope video camera. Individual fibers were counted that crossed dermal-epidermal interface. Secondary branches within epidermis were excluded. Length of epidermis was measured to generate linear density of IENF/millimeter as described elsewhere (Canta et al., 2016 Neurobiol Aging 45:136-148).

[4] = tested on: sciatic nerves (BTZ-induced CIPN); experiment: CIPN-reversal study: sciatic nerve conduction velocity; type: in vivo, Wistar rat
Procedure: as §1
(§3) NCV (meters/second) was obtained from caudal and sciatic nerves with an electromyography tool (Myto 2, ABN Neuro, Firenze, Italy). Caudal NCV was measured by placement of recording needle electrodes distally in the tail with stimulating needle electrodes 5 cm and 10 cm proximal to recording point. Peak latencies of potentials recorded at the 2 sites after nerve stimulation were determined and NCV was calculated. Sciatic NCV was determined by placement of needle recording electrodes near ankle bone and stimulating electrodes close to thigh. Peak latencies were recorded similar to caudal nerve and NCV was calculated. NCV was performed under standard conditions in a temperature-controlled facility (22±2° C.) and rats were under isoflurane anesthesia with monitoring of vital signs.

[5] = tested on: human MMCs (RPMI 8226, MM.1S, U266B1); experiment: In vitro cytotoxicity and combination (BTZ and CX-8998) interference study, SRB assay in the 3 MCLs; type: cell-based
Procedure: Cells were plated in 96-well plates (Eppendorf, Milano, Italy) at 10000 cells/well. […] After incubation, BTZ was diluted in culture medium at dose range for testing. Cells were fixed with trichloroacetic acid for 1 hour. Cells were stained with a solution of SRB in 1% acetic acid for 15 minutes. Unbound dye was removed by 5 washes with 1% acetic acid. Bound dye was dissolved with a solution of Tris (hydroxymethyl) aminomethane base and absorbance of content was measured at […]. Growth inhibition was expressed as percentage of DMSO control absorbance of cells and corrected for absorbance before addition of drug.
Differences in percent cell survival between each drug or drug combination and control were analyzed by non-linear least squares with statistical significance at p<0.05.

proteasome = experiment: Proteasome inhibition assay in PBMCs of treated rats; type: in vivo, rat
Procedure: as §1

β-tubulin = β-tubulin polymerization assay in sciatic nerve; type: in vivo, Wistar rat; details: week 8; for β-tubulin polymerization (%): p<0.05
Procedure: as §1, §2
Protein extracts from sciatic nerves were processed similar to the proteasome assay except for lysis buffer that contained freshly added protease and […] (10 mM sodium orthovanadate, 4 mM phenylmethylsulfonyl fluoride, 1% aprotinin and 20 mM sodium pyrophosphate). Protein extracts were centrifuged (14000 rpm for 10 minutes at 4° C.) to separate soluble (S) free tubulin fractions from polymerized (P) fractions. Supernatants were collected and pellets of polymerized tubulin were resuspended by sonication for 20 seconds in a volume of lysis buffer supplemented with 0.5% sodium deoxycholate (equivalent to S fraction). Protein aliquots (10 μg) were placed onto 13% SDS-PAGE and, after electrophoresis, were transferred to nitrocellulose filters. […] Band intensity was quantified with Gel Logic 100 Image System (Eastman Kodak, Rochester, N.Y., USA). Final mean values were obtained from triplicate experiments and data were expressed as percentage of P/P+S in treated rats compared to controls.

[6] = tested on: caudal nerves (BTZ-induced CIPN); experiment: CIPN-reversal study: caudal nerve conduction velocity; type: in vivo, Wistar rat
Procedure: as §1, §3

[7] = week 5, combination groups vs BTZ alone

SMILES: CC(C)c1ccc(CC(=O)N[C@H](C)c2ccc(OCC(F)(F)F)cn2)cc1 [CX-8998, (R)-2-(4-Isopropylphenyl)-N-(1-(5-(2,2,2-Trifluoroethoxy)pyridin-2-yl)ethyl)acetamide]
- mechanical threshold (MT) ([1]; BTZ and 3 mg/kg CX-8998 vs BTZ alone): tendency to increase MT
- mechanical threshold (MT) ([1]; BTZ and 30 mg/kg CX-8998 vs BTZ alone): tendency to increase MT
- tumor volume (TV) ([2]; day 18, BTZ 1 mg/kg in combination with CX-8998 30 mg/kg vs vehicle control, p<0.05): significantly reduced TV
- tumor volume (TV) trend ([2]; day 18 through day 28, BTZ in combination with CX-8998 30 mg/kg, difference vs BTZ alone p<0.01 at termination): tended to decrease TV
- qualitative light microscopic analysis of nerve fibers in plantar glabrous skin ([3]; BTZ and 30 mg/kg CX-8998 vs BTZ alone and BTZ with 3 mg/kg CX-8998): more nerve fibers
- BTZ induced reduction of IENF density ([3]; BTZ and 3 mg/kg CX-8998 vs BTZ): tendency toward reversal but did not reach statistical significance
- BTZ induced reduction of IENF density ([3]; co-administration of 10 mg/kg CX-8998 vs BTZ): no reversal
- BTZ induced reduction of IENF density ([3]; co-administration of 30 mg/kg CX-8998, p<0.05): significantly reversed
- sciatic NCV trend ([4]; week 5, all combination dose groups vs BTZ alone): numerical trend towards decreased NCV
- sciatic NCV [4, 7]: no significant differences
- sciatic NCV ([4]; week 8, 10 mg/kg CX-8998 in combination with BTZ vs BTZ alone, p<0.05): significant increase
- sciatic NCV ([4]; week 8, 30 mg/kg CX-8998 in combination with BTZ vs BTZ alone, p<0.05): significant increase
- percent cell survival ([5]; CX-8998 10-1000 nM combined with BTZ at IC50 vs DMSO control, p<0.001): significantly reduced
- percent cell survival ([5]; CX-8998 alone, all concentrations (10-1000 nM), vs DMSO control): did not reduce percent cell survival
- interference with anti-proteasome activity of BTZ (proteasome; co-administration of CX-8998): did not interfere
- proteasome activity (proteasome; weeks 5 and 8, all combinations of BTZ and CX-8998 (3, 10, 30 mg/kg)): similarly inhibited
- β-tubulin polymerization (%) (β-tubulin; BTZ combined with 3 mg/kg CX-8998 vs control): significantly increased
- β-tubulin polymerization (%) (β-tubulin; BTZ combined with 10 mg/kg CX-8998 vs control): significantly increased
- BTZ-induced increase of β-tubulin polymerization (β-tubulin; BTZ combined with 30 mg/kg CX-8998 vs BTZ alone): tended to reverse but did not reach statistical significance
- caudal NCV trend ([6]; week 5, all combinations with BTZ vs BTZ alone): numerical trend toward increased NCV
- caudal NCV [6, 7]: no significant differences
- caudal NCV ([6]; week 8, 10 mg/kg CX-8998 in combination with BTZ vs BTZ alone, p<0.01): significantly increased
- caudal NCV ([6]; week 8, 30 mg/kg CX-8998 in combination with BTZ vs BTZ alone, p<0.001): significantly increased
